The results in this text go back to patent US20210029995A1, “Use of Volatile Organic Compounds as Pesticides” (Certis Europe B.V., priority 2018, published 2021).

Structures are written as SMILES.

In the data set the test system is H. bacteriophora. The settings on record: 20 μl VOC, checked after 24 hr, sealed Petri dish. How it is done:
Authenticated M. brunneum VOCs, along with other selected VOCs, were screened for nematicidal activity against S. feltiae and H. bacteriophora. […] Each Petri dish (90 mm) contained 20 ml of the water agar medium. The inoculated plates were kept in darkness for 3 hr at room temperature to acclimatize. The plates were then exposed to 20 μl of the VOC dispensed from a 8 mm paper disc (Whatman™, 0.34 mm thickness) positioned on a 25×25 mm glass coverslip placed in the centre of the Petri dish lid (FIG. 1A). The plates were sealed with a double layer of Parafilm and were kept in the dark at 21° C. and checked after 24 hr. The number of live and dead nematodes were counted with the aid of a stereo binocular microscope (30×).
The deposition was predetermined using bacterial cultures highly sensitive to these VOCs. The edge of the circular zone of inhibition delineated the area of activity.
Mean of mortality was calculated from the total number of alive and dead individuals across all circles. There were five replicates per treatment and the whole experiment was repeated twice.

For the compound `CC(C)CC(=O)O` [Isovaleric acid], the “Mortality (%) (Mean ± SE) H. bacteriophora (Hb)” value was determined as 13 ± 2.8%.
